Assay results as given in PubChem BioAssay AID445 (National Center for Advancing Translational Sciences (NCATS), 2006).
Some of the results follow. The main result of the screen is listed elsewhere. These columns were measured beside it and carry no call. Compounds called inactive in the main read-out are mostly missing here. The note in brackets gives the kind of curve behind each potency; many fits are weak.

Experiment: IkB Signaling
Conditions: ABC-DLBCL IkBa-CBG/CBR dual luciferase ratio (green luciferase fused to IkBa over red control in OCI-Ly3 lymphoma cells), 4 h; measured here: control luc red channel unless noted
Procedure, shortened: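 Curves were fitted separately to fusion (green), unfused (red) and ratio luminescence, then classed by r2, magnitude and activity. Cells: OCI-Ly3, 4 h compound plus doxycycline at 37C; 10 uM MG-132 defined full response.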

Structure (SMILES)	AC50
O=C(NCc1ccccc1F)C1CCN(c2nnc(-n3cccc3)s2)CC1	2 µM [falling, full curve]
COc1ccccc1NC(=O)CSc1nnc(-c2ccccc2C)o1	39.8 µM [falling, single point]
COc1ccc2c(c1)c(=O)c(C(=O)c1ccccc1)cn2CC(=O)Nc1ccc2c(c1)OCCO2	20 µM [falling, single point]
COCCNC(=O)c1ccc2c(=O)n(CCc3ccccc3)c(SCC(=O)CC(=O)OC)nc2c1	12.6 µM [falling, partial curve]
COc1cccc(-c2nc(S(=O)(=O)c3ccccc3)c(N3CCCCC3)o2)c1	20 µM [falling, partial curve]
CCC(C)NC(=O)CSc1nc2cc3c(cc2c(=O)n1CCCC(=O)NCCc1ccc(OC)c(OC)c1)OCO3 (configuration not stated)	7.94 µM [rising, partial curve, poor fit]
COc1ccccc1CNC(=O)c1ccc(CS(=O)(=O)c2c(Cl)cccc2Cl)o1	20 µM [falling, single point]
CCc1ccc(CNC(=O)c2c3c(nc4ccccc24)C(=O)N(C2CCCCC2)C3)cc1	25.1 µM [falling, partial curve]
Cn1c(C(C#N)C2=C(Cl)C(=O)N(c3ccccc3)C2=O)nc2ccccc21 (configuration not stated)	12.6 µM [falling, partial curve]
Cc1ccccc1OCCCCn1c(-c2ccc(Cl)cc2)nc2ccccc2c1=O	0.794 µM [falling, partial curve]
CCOC(=O)c1ccc(N2C(=O)c3[nH]nc(-c4ccc(C)cc4)c3C2c2ccc(O)c(OCC)c2)cc1 (configuration not stated)	3.16 µM [falling, full curve]
COc1cc2c(=O)c(C(=O)c3ccc(C)c(C)c3)cn(Cc3ccccc3F)c2cc1OC	31.6 µM [falling, single point]
COc1ccc(Nc2nc(-c3cccc(Cl)c3)c3c(n2)-c2ccccc2OC3)cc1	7.94 µM [rising, single point]
CCOc1ccccc1CNC(=O)Cc1ccc(NC(=O)N2CCCCc3ccccc32)cc1	12.6 µM [falling, partial curve]
CCOc1ccc(NC(=O)CSc2nc3ccsc3c(=O)n2C(C)CC)cc1 (configuration not stated)	0.2 µM [falling, full curve, poor fit]
CCOc1ccc(CCNC(=O)CCc2c(C)nc3c(c(C)nn3-c3ccc(C)c(C)c3)c2C)cc1	31.6 µM [falling, single point]
Cc1cccc2c1-c1sc(C(=O)N3CCN(c4ccccc4)CC3)cc1CO2	0.631 µM [falling, full curve]

Some values from the list:
AC50, CCOc1ccc(NC(=O)CSc2nc3ccsc3c(=O)n2C(C)CC)cc1 (configuration not stated) reads 0.2 µM [falling, full curve, poor fit]
AC50, COCCNC(=O)c1ccc2c(=O)n(CCc3ccccc3)c(SCC(=O)CC(=O)OC)nc2c1 reads 12.6 µM [falling, partial curve]
